# Earlier results in patent US10080774B2, “Oncolytic adenovirus armed with therapeutic genes” (priority 2002, dated 2018).
# At least one structure is not confirmed: it was looked up by name or label, or the drawing left a doubt.
# Conditions: cited from earlier work
structure (smiles),measurement,value
"[O]=[188Re](=[O])(=[O])[O-] [^188ReO4, Rhenium-188 perrenate]",dose to critical organ (stomach),6 cGy/mCi
